These results are taken from article PMC4990184, “The Tp0684 (MglB-2) Lipoprotein of Treponema pallidum: A Glucose-Binding Protein with Divergent Topology” (PLoS ONE, 2016).

Sequences of proteins named here, by UniProt entry; tags and fusion partners are left off. Residues count along the entry.
UniProt Q08255, residues 36-403: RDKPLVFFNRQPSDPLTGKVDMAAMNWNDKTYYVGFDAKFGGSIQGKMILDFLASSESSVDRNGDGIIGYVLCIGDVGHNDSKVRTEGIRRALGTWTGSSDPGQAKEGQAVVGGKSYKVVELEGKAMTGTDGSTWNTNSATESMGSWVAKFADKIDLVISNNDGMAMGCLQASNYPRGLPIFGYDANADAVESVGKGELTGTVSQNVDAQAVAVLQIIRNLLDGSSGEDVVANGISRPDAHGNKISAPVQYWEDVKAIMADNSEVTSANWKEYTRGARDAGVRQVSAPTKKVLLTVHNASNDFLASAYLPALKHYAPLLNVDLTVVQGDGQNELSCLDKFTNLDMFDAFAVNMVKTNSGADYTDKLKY

Results are given in words; binding and its absence hold for the method and conditions named.

In this test the target is TpMglB-2 (Tp0684), soluble non-lipidated recombinant form, residues 11-378 (Treponema pallidum) (UniProt Q08255). In words: AUC; sedimentation velocity, 20 °C, 50,000 rpm, Assay Buffer (10 mM sodium phosphate, pH 7.4, 100 mM NaCl); 0.6–5 mg/mL protein, in the presence and absence of D-glucose; both purified.

As for “TpMglB-2 (Tp0684), soluble non-lipidated recombinant form, residues 11-378 (from UniProt Q08255 36-403) (domain or fragment)”, the binding result was “no binding (tested: 0.6–5 mg/mL)”.
